According to publication PMC7385149:
Results are given in words; binding and its absence hold for the method and conditions named. Binding seen in cells or lysates may run through a third protein. Some entries that bind do so weakly or less than the wild type. For some assays here: Sequences can lack the tags named with a protein.

By UniProt entry, the sequences of proteins in these tests, tags left out. Residues count along the entry.
UniProt Q13443, residues 29-819: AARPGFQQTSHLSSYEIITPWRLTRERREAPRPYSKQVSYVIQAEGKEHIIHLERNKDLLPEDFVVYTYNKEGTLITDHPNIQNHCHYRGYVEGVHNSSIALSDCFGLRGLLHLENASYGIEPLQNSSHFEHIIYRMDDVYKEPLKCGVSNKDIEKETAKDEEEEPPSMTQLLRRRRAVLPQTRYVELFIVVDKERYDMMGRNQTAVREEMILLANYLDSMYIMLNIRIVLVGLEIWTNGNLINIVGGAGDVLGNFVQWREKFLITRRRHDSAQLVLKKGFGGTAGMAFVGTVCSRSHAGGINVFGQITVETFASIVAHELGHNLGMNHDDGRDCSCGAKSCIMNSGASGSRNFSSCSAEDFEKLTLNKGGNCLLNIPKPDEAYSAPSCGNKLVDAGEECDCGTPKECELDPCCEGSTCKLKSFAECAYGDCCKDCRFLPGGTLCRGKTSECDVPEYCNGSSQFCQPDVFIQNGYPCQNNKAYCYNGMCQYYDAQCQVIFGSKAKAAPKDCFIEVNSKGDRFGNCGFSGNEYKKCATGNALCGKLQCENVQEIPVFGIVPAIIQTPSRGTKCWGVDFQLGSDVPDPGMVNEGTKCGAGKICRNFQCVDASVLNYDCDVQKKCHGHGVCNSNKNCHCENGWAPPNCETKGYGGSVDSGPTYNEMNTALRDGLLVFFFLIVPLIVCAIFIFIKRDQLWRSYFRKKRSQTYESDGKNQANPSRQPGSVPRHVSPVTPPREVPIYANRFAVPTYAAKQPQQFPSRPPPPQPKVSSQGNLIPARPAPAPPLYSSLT

T1: N-α-Acetyltransferase 10 protein (Naa10p), endogenous (human (endogenous in DU145)) (UniProt P41227)
T1 sequence: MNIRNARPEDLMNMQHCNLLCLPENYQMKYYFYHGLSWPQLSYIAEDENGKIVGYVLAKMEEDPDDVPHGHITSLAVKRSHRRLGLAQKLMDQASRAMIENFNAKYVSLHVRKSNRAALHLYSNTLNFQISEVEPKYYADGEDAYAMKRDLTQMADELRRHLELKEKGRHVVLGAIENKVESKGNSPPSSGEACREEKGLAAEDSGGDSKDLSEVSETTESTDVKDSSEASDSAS


How the values were obtained:
[1] = target: T1, N-α-Acetyltransferase 10 protein (Naa10p), endogenous (human (endogenous in DU145)); test: co-IP; endogenous proteins; DU145 cells lysed in NETN buffer; 2 mg lysate with anti-Naa10p antibody overnight at 4 °C, then protein A Sepharose beads 1 h, five washes; normal IgG as IP control; Western blot
[2] = target: a disintegrin and metalloprotease 9, flag-tagged (ADAM9-flag) (UniProt Q13443); test: co-IP; 293T cells co-transfected with ADAM9-flag and Naa10p-V5 for 48 h; NETN lysis buffer (150 mM NaCl, 20 mM Tris-base, 0.5% NP-40, 1 mM EDTA); 2 mg lysate with Anti-Flag M2 affinity gel at 4 °C overnight, five washes; Western blot

| binding [1] | binding [2] | Molecule |
| --- | --- | --- |
| binds | – | a disintegrin and metalloprotease 9 (ADAM9), endogenous (from UniProt Q13443 29-819) |
| – | binds | N-α-Acetyltransferase 10 protein, V5-tagged (Naa10p-V5) (protein, UniProt P41227 1-235) MNIRNARPEDLMNMQHCNLLCLPENYQMKYYFYHGLSWPQLSYIAEDENGKIVGYVLAKMEEDPDDVPHGHITSLAVKRSHRRLGLAQKLMDQASRAMIENFNAKYVSLHVRKSNRAALHLYSNTLNFQISEVEPKYYADGEDAYAMKRDLTQMADELRRHLELKEKGRHVVLGAIENKVESKGNSPPSSGEACREEKGLAAEDSGGDSKDLSEVSETTESTDVKDSSEASDSAS |
